PubChem BioAssay AID1224830 | NIAID – 2016

- Screen: 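Genes whose knock-down alters the TNF-alpha reporter response to LPS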 (primary screen)
- Cell system: human THP-1 monocytic leukaemia cells, TNF dual-luciferase reporter clone, PMA-differentiated to macrophage-like cells
- Knock-down reagent: siRNA pool against human genes, 50 nM
- Time to read-out: LPS for 4 h, given about 3 days after siRNA transfection
- Conditions: bacterial LPS (TLR4 ligand), 10 ng/ml
- Read-out: 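Ratio of firefly to renilla light, scaled to the plate median and expressed as a robust z-score per replicate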
- Scale: TNF reporter robust z-score: higher = stronger TNF reporter response to LPS
- Active means: 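a well is active when its z-score exceeds 2.8 or falls below -1.5; control wells carry no call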
In all, the deposit lists about 18,000 reagents; this is a random part of them. About 2,900 of them (16%) were called active. 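Calls are made per well; low scores hint the gene aids the LPS response, high scores that it dampens it.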 Unmarked entries are inactive. Repeated entries: four replicate wells of each siRNA pool.

The first 12 records, ahead of the listing:
target,TNF reporter robust z-score
SLC9A8,-0.17
SLC9A8,-0.35
SLC9A8,-0.04
SLC9A8,0.07
SERPINE2 (serpin family E member 2),0.37
SERPINE2 (serpin family E member 2),1.9
SERPINE2 (serpin family E member 2),0.61
SERPINE2 (serpin family E member 2),0.75
PIK3R1 (phosphoinositide-3-kinase regulatory subunit 1),-0.05
PIK3R1 (phosphoinositide-3-kinase regulatory subunit 1),0.37
PIK3R1 (phosphoinositide-3-kinase regulatory subunit 1),0.16
PIK3R1 (phosphoinositide-3-kinase regulatory subunit 1),2.23

Main list, repeating the preview:
target,TNF reporter robust z-score
SLC9A8,-0.17
SLC9A8,-0.35
SLC9A8,-0.04
SLC9A8,0.07
SERPINE2 (serpin family E member 2),0.37
SERPINE2 (serpin family E member 2),1.9
SERPINE2 (serpin family E member 2),0.61
SERPINE2 (serpin family E member 2),0.75
PIK3R1 (phosphoinositide-3-kinase regulatory subunit 1),-0.05
PIK3R1 (phosphoinositide-3-kinase regulatory subunit 1),0.37
PIK3R1 (phosphoinositide-3-kinase regulatory subunit 1),0.16
PIK3R1 (phosphoinositide-3-kinase regulatory subunit 1),2.23
RGS8 (regulator of G protein signaling 8),-0.81
RGS8 (regulator of G protein signaling 8),0.27
RGS8 (regulator of G protein signaling 8),-0.35
RGS8 (regulator of G protein signaling 8),-0.79
MTNAP1 (mitochondrial nucleoid associated protein 1),0.63
MTNAP1 (mitochondrial nucleoid associated protein 1),0.17
MTNAP1 (mitochondrial nucleoid associated protein 1),0.8
MTNAP1 (mitochondrial nucleoid associated protein 1),-0.05
NAF1 (nuclear assembly factor 1 ribonucleoprotein),-0.82
NAF1 (nuclear assembly factor 1 ribonucleoprotein),-0.45
NAF1 (nuclear assembly factor 1 ribonucleoprotein),-0.54
NAF1 (nuclear assembly factor 1 ribonucleoprotein),-0.47
PTGS1 (prostaglandin-endoperoxide synthase 1),2.21
PTGS1 (prostaglandin-endoperoxide synthase 1),3.07 (active)
PTGS1 (prostaglandin-endoperoxide synthase 1),1.32
PTGS1 (prostaglandin-endoperoxide synthase 1),2.05
BARHL2 (BarH like homeobox 2),0.14
BARHL2 (BarH like homeobox 2),0.45
BARHL2 (BarH like homeobox 2),1.75
BARHL2 (BarH like homeobox 2),1.15
HVCN1 (hydrogen voltage gated channel 1),-1.52 (active)
HVCN1 (hydrogen voltage gated channel 1),0.1
HVCN1 (hydrogen voltage gated channel 1),-0.9
HVCN1 (hydrogen voltage gated channel 1),-0.1
FAM221B (family with sequence similarity 221 member B),1.82
FAM221B (family with sequence similarity 221 member B),6.36 (active)
FAM221B (family with sequence similarity 221 member B),5.13 (active)
FAM221B (family with sequence similarity 221 member B),3.94 (active)
ZNF79 (zinc finger protein 79),1.82
ZNF79 (zinc finger protein 79),0.11
ZNF79 (zinc finger protein 79),0.16
ZNF79 (zinc finger protein 79),0.33
KRTAP19-5 (keratin associated protein 19-5),0.55
KRTAP19-5 (keratin associated protein 19-5),1.56
KRTAP19-5 (keratin associated protein 19-5),2.24
KRTAP19-5 (keratin associated protein 19-5),1
MOGAT2 (monoacylglycerol O-acyltransferase 2),0.86
MOGAT2 (monoacylglycerol O-acyltransferase 2),0.25
MOGAT2 (monoacylglycerol O-acyltransferase 2),-1.17
MOGAT2 (monoacylglycerol O-acyltransferase 2),0.54
NUP107 (nucleoporin 107),0.75
NUP107 (nucleoporin 107),-0.13
NUP107 (nucleoporin 107),1.97
NUP107 (nucleoporin 107),-0.6
"TAFAZZIN (tafazzin, phospholipid-lysophospholipid transacylase)",0.71
"TAFAZZIN (tafazzin, phospholipid-lysophospholipid transacylase)",-0.16
"TAFAZZIN (tafazzin, phospholipid-lysophospholipid transacylase)",0.62
"TAFAZZIN (tafazzin, phospholipid-lysophospholipid transacylase)",1
PUDP (pseudouridine 5'-phosphatase),0.92
PUDP (pseudouridine 5'-phosphatase),2.18
PUDP (pseudouridine 5'-phosphatase),1.77
PUDP (pseudouridine 5'-phosphatase),0.3
ADI1 (acireductone dioxygenase 1),0.44
ADI1 (acireductone dioxygenase 1),0.6
ADI1 (acireductone dioxygenase 1),-0.55
ADI1 (acireductone dioxygenase 1),0.48
TKT (transketolase),0.68
TKT (transketolase),0.38
TKT (transketolase),-0.68
TKT (transketolase),-0.25
"CYCS (cytochrome c, somatic)",1.09
"CYCS (cytochrome c, somatic)",12.4 (active)
"CYCS (cytochrome c, somatic)",0.56
"CYCS (cytochrome c, somatic)",-0.05
KBTBD11 (kelch repeat and BTB domain containing 11),0.17
KBTBD11 (kelch repeat and BTB domain containing 11),2.78
KBTBD11 (kelch repeat and BTB domain containing 11),0.02
KBTBD11 (kelch repeat and BTB domain containing 11),-0.48
RGS5 (regulator of G protein signaling 5),0.68
RGS5 (regulator of G protein signaling 5),0.48
RGS5 (regulator of G protein signaling 5),0.73
RGS5 (regulator of G protein signaling 5),0.53
"NRAS (NRAS proto-oncogene, GTPase)",0.95
"NRAS (NRAS proto-oncogene, GTPase)",1.07
"NRAS (NRAS proto-oncogene, GTPase)",1.25
"NRAS (NRAS proto-oncogene, GTPase)",1.67
JTB (jumping translocation breakpoint),-1.35
JTB (jumping translocation breakpoint),-1.21
JTB (jumping translocation breakpoint),-0.77
JTB (jumping translocation breakpoint),-0.96
CIMAP3 (ciliary microtubule associated protein 3),-0.81
CIMAP3 (ciliary microtubule associated protein 3),-0.86
CIMAP3 (ciliary microtubule associated protein 3),0.07
CIMAP3 (ciliary microtubule associated protein 3),0.31
CD82 (CD82 molecule),-0.52
CD82 (CD82 molecule),0.92
CD82 (CD82 molecule),1.32
CD82 (CD82 molecule),1.23
"LARP7 (La ribonucleoprotein 7, transcriptional regulator)",0.36
"LARP7 (La ribonucleoprotein 7, transcriptional regulator)",1.66
"LARP7 (La ribonucleoprotein 7, transcriptional regulator)",2.82 (active)
"LARP7 (La ribonucleoprotein 7, transcriptional regulator)",-0.01
TAF4B (TATA-box binding protein associated factor 4b),-0.21
TAF4B (TATA-box binding protein associated factor 4b),0.85
TAF4B (TATA-box binding protein associated factor 4b),0.16
"LIPE (lipase E, hormone sensitive type)",2.03
"LIPE (lipase E, hormone sensitive type)",2.39
"LIPE (lipase E, hormone sensitive type)",1.35
"LIPE (lipase E, hormone sensitive type)",2.45
